Measured values reported in patent US20070099232.
Construct, isoform or probe ends are uncertain for at least one entry. For some assays here: A negative result means that nothing was seen under these conditions.

Assays:
BtUSP (Bemisia tabaci) = assay: EMSA; settings: USP alone does not bind as homodimer; protein translated in vitro; label: 32P (Klenow fill-in)
[1] = tested on: BtEcR/BtUSP heterodimer (Bemisia tabaci); assay: EMSA; settings: greatly enhanced by Mg2+ (5 mM MgCl2); enhanced by ponasterone A when added before probe; competed by excess unlabelled EcRE; room temperature; protein translated in vitro; label: 32P (Klenow fill-in)

## AGCTTCAAGGGTTCAATGCACTTGTCCATCG / AGCTCGATGGACAAGTGCATTGAACCCTTGA [hsp27 EcRE]
BtUSP (Bemisia tabaci)
  binding result: no binding
[1]
  binding result: binds
